In publication PMC4695028:
These are yes or no findings as the source states them, for the method shown. In cells and extracts the contact can be indirect. Some results given as binding are weak or reduced against the parent protein; the word gives no strength.

Sequences of proteins named here, by UniProt entry; tags and fusion partners are left off.
UniProt P40763: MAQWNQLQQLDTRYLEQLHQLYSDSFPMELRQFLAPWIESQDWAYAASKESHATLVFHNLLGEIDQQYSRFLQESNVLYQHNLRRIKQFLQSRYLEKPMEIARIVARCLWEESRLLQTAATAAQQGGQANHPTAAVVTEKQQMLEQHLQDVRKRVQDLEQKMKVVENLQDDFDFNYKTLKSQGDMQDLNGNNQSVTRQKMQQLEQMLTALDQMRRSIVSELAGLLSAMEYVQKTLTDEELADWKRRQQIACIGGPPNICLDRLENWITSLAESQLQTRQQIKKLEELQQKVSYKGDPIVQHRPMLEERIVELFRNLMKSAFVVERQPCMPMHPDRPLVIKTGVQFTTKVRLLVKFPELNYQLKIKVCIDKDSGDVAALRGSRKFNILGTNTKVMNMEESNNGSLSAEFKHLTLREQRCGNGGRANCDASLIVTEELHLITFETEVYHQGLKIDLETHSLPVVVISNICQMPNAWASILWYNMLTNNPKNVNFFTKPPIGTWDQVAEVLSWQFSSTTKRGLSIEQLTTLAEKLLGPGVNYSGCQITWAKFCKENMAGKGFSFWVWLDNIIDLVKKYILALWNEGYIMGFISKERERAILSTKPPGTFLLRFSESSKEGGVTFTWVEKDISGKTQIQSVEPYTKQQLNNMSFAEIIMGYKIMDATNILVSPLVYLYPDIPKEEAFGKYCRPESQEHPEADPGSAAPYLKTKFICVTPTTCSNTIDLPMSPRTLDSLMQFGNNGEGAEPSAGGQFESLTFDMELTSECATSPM
UniProt P09429: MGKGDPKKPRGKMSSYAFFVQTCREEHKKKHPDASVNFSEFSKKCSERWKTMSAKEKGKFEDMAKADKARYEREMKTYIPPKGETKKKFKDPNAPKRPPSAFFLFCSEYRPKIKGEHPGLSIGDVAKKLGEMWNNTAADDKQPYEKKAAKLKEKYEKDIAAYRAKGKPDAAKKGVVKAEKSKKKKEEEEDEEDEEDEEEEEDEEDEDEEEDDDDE

Molecular target: STAT3-P^Y705 (human (endogenous in Su-DHL6 and Su-DHL8)) (UniProt P40763)
Experiment: co-IP; Su-6 and Su-8 cell extracts in RIPA buffer, 200 ug protein, 4°C overnight with anti-STAT3-P^Y705 or anti-HMGB1 antibody or control IgG, Protein A/G Plus-Agarose, blot with the other antibody; control cells and cells treated with IL-10 for 4 hours (binding increased with IL-10)

binding: binds weakly
Substance: High mobility group protein B 1 (from UniProt P09429 1-215)
